# No constants are given. Whether binding was seen depends on the method and setting. Binding can be weak; no strength is given.
# Biological target: Recombinant Human TNF-α/TNFSF1A (human)
# Test: SPR (Biacore)
row,Binder,binding
1,"AB248 (antibody, V domains shown, also called hMAK195VH.1b / hMAK195VL.1) VH: EVQLQESGPGLVKPSETLSLTCTVSGFSLSDYGVNWIRQPPGKGLEWIGMIWGDGSTDYDSTLKSRVTISKDTSKNQFSLKLSSVTAADTAVYYCAREWHHGPVAYWGQGTLVTVSS VL: DIQMTQSPSSLSASVGDRVTITCKASQAVSSAVAWYQQKPGKAPKLLIYWASTRHTGVPSRFSGSGSGTDFTLTISSLQPEDFATYYCQQHYSTPFTFGQGTKLEIK",binds
2,"AB240 (antibody, V domains shown, also called hMAK195VH.1 / hMAK195VL.1) VH: EVQLQESGPGLVKPSETLSLTCTVSGGSISDYGVNWIRQPPGKGLEWIGMIWGDGSTDYDSTLKSRVTISVDTSKNQFSLKLSSVTAADTAVYYCAREWHHGPVAYWGQGTLVTVSS VL: DIQMTQSPSSLSASVGDRVTITCKASQAVSSAVAWYQQKPGKAPKLLIYWASTRHTGVPSRFSGSGSGTDFTLTISSLQPEDFATYYCQQHYSTPFTFGQGTKLEIK",binds
3,"AB241 (antibody, V domains shown, also called hMAK195VH.1 / hMAK195VL.1a) VH: EVQLQESGPGLVKPSETLSLTCTVSGGSISDYGVNWIRQPPGKGLEWIGMIWGDGSTDYDSTLKSRVTISVDTSKNQFSLKLSSVTAADTAVYYCAREWHHGPVAYWGQGTLVTVSS VL: DIQMTQSPSSLSASVGDRVTITCKASQAVSSAVAWYQQKPGKSPKLLIYWASTRHTGVPSRFSGSGSGTDFTLTISSLQPEDFATYYCQQHYSTPFTFGQGTKLEIK",binds
4,"AB244 (antibody, V domains shown, also called hMAK195VH.1a / hMAK195VL.1) VH: EVQLQESGPGLVKPSETLSLTCTVSGFSLSDYGVNWVRQPPGKGLEWLGMIWGDGSTDYDSTLKSRLTISKDNSKSQISLKLSSVTAADTAVYYCAREWHHGPVAYWGQGTLVTVSS VL: DIQMTQSPSSLSASVGDRVTITCKASQAVSSAVAWYQQKPGKAPKLLIYWASTRHTGVPSRFSGSGSGTDFTLTISSLQPEDFATYYCQQHYSTPFTFGQGTKLEIK",binds
5,"AB245 (antibody, V domains shown, also called hMAK195VH.1a / hMAK195VL.1a) VH: EVQLQESGPGLVKPSETLSLTCTVSGFSLSDYGVNWVRQPPGKGLEWLGMIWGDGSTDYDSTLKSRLTISKDNSKSQISLKLSSVTAADTAVYYCAREWHHGPVAYWGQGTLVTVSS VL: DIQMTQSPSSLSASVGDRVTITCKASQAVSSAVAWYQQKPGKSPKLLIYWASTRHTGVPSRFSGSGSGTDFTLTISSLQPEDFATYYCQQHYSTPFTFGQGTKLEIK",binds
6,"AB249 (antibody, V domains shown, also called A3249; hMAK195VH.1b / hMAK195VL.1a) VH: EVQLQESGPGLVKPSETLSLTCTVSGFSLSDYGVNWIRQPPGKGLEWIGMIWGDGSTDYDSTLKSRVTISKDTSKNQFSLKLSSVTAADTAVYYCAREWHHGPVAYWGQGTLVTVSS VL: DIQMTQSPSSLSASVGDRVTITCKASQAVSSAVAWYQQKPGKSPKLLIYWASTRHTGVPSRFSGSGSGTDFTLTISSLQPEDFATYYCQQHYSTPFTFGQGTKLEIK",binds
7,"AB250 (antibody, V domains shown, also called hMAK195VH.1b / hMAK195VL.2) VH: EVQLQESGPGLVKPSETLSLTCTVSGFSLSDYGVNWIRQPPGKGLEWIGMIWGDGSTDYDSTLKSRVTISKDTSKNQFSLKLSSVTAADTAVYYCAREWHHGPVAYWGQGTLVTVSS VL: EIVMTQSPATLSLSPGERATLSCKASQAVSSAVAWYQQKPGQAPRLLIYWASTRHTGIPARFSGSGSGTDFTLTISSLQPEDFAVYYCQQHYSTPFTFGQGTKLEIK",binds
8,"AB242 (antibody, V domains shown, also called hMAK195VH.1 / hMAK195VL.2) VH: EVQLQESGPGLVKPSETLSLTCTVSGGSISDYGVNWIRQPPGKGLEWIGMIWGDGSTDYDSTLKSRVTISVDTSKNQFSLKLSSVTAADTAVYYCAREWHHGPVAYWGQGTLVTVSS VL: EIVMTQSPATLSLSPGERATLSCKASQAVSSAVAWYQQKPGQAPRLLIYWASTRHTGIPARFSGSGSGTDFTLTISSLQPEDFAVYYCQQHYSTPFTFGQGTKLEIK",binds
9,"AB243 (antibody, V domains shown, also called hMAK195VH.1 / hMAK195VL.2a) VH: EVQLQESGPGLVKPSETLSLTCTVSGGSISDYGVNWIRQPPGKGLEWIGMIWGDGSTDYDSTLKSRVTISVDTSKNQFSLKLSSVTAADTAVYYCAREWHHGPVAYWGQGTLVTVSS VL: EIVMTQSPATLSLSPGERATLSCKASQAVSSAVAWYQQKPGQSPRLLIYWASTRHTGVPARFSGSGSGTDFTLTISSLQPEDFAVYYCQQHYSTPFTFGQGTKLEIK",binds
10,"AB246 (antibody, V domains shown, also called hMAK195VH.1a / hMAK195VL.2) VH: EVQLQESGPGLVKPSETLSLTCTVSGFSLSDYGVNWVRQPPGKGLEWLGMIWGDGSTDYDSTLKSRLTISKDNSKSQISLKLSSVTAADTAVYYCAREWHHGPVAYWGQGTLVTVSS VL: EIVMTQSPATLSLSPGERATLSCKASQAVSSAVAWYQQKPGQAPRLLIYWASTRHTGIPARFSGSGSGTDFTLTISSLQPEDFAVYYCQQHYSTPFTFGQGTKLEIK",binds
11,"AB247 (antibody, V domains shown, also called hMAK195VH.1a / hMAK195VL.2a) VH: EVQLQESGPGLVKPSETLSLTCTVSGFSLSDYGVNWVRQPPGKGLEWLGMIWGDGSTDYDSTLKSRLTISKDNSKSQISLKLSSVTAADTAVYYCAREWHHGPVAYWGQGTLVTVSS VL: EIVMTQSPATLSLSPGERATLSCKASQAVSSAVAWYQQKPGQSPRLLIYWASTRHTGVPARFSGSGSGTDFTLTISSLQPEDFAVYYCQQHYSTPFTFGQGTKLEIK",binds
12,"AB251 (antibody, V domains shown, also called hMAK195VH.1b / hMAK195VL.2a) VH: EVQLQESGPGLVKPSETLSLTCTVSGFSLSDYGVNWIRQPPGKGLEWIGMIWGDGSTDYDSTLKSRVTISKDTSKNQFSLKLSSVTAADTAVYYCAREWHHGPVAYWGQGTLVTVSS VL: EIVMTQSPATLSLSPGERATLSCKASQAVSSAVAWYQQKPGQSPRLLIYWASTRHTGVPARFSGSGSGTDFTLTISSLQPEDFAVYYCQQHYSTPFTFGQGTKLEIK",binds
13,"AB260 (antibody, V domains shown, also called hMAK195VH.2b / hMAK195VL.1) VH: EVQLVESGGGLVQPGGSLRLSCAASGFTLSDYGVNWVRQAPGKGLEWVSMIWGDGSTDYDSTLKSRFTISKDNSKNTLYLQMNSLRAEDTAVYYCAREWHHGPVAYWGQGTLVTVSS VL: DIQMTQSPSSLSASVGDRVTITCKASQAVSSAVAWYQQKPGKAPKLLIYWASTRHTGVPSRFSGSGSGTDFTLTISSLQPEDFATYYCQQHYSTPFTFGQGTKLEIK",binds
14,"AB252 (antibody, V domains shown, also called hMAK195VH.2 / hMAK195VL.1) VH: EVQLVESGGGLVQPGGSLRLSCAASGFTFSDYGVNWVRQAPGKGLEWVSMIWGDGSTDYDSTLKSRFTISRDNSKNTLYLQMNSLRAEDTAVYYCAREWHHGPVAYWGQGTLVTVSS VL: DIQMTQSPSSLSASVGDRVTITCKASQAVSSAVAWYQQKPGKAPKLLIYWASTRHTGVPSRFSGSGSGTDFTLTISSLQPEDFATYYCQQHYSTPFTFGQGTKLEIK",binds
15,"AB253 (antibody, V domains shown, also called hMAK195VH.2 / hMAK195VL.1a) VH: EVQLVESGGGLVQPGGSLRLSCAASGFTFSDYGVNWVRQAPGKGLEWVSMIWGDGSTDYDSTLKSRFTISRDNSKNTLYLQMNSLRAEDTAVYYCAREWHHGPVAYWGQGTLVTVSS VL: DIQMTQSPSSLSASVGDRVTITCKASQAVSSAVAWYQQKPGKSPKLLIYWASTRHTGVPSRFSGSGSGTDFTLTISSLQPEDFATYYCQQHYSTPFTFGQGTKLEIK",binds
16,"AB256 (antibody, V domains shown, also called hMAK195VH.2a / hMAK195VL.1) VH: EVQLVESGGGLVQPGGSLRLSCAVSGFTLSDYGVNWVRQAPGKGLEWLGMIWGDGSTDYDSTLKSRLTISKDNSKSTIYLQMNSLRAEDTAVYYCAREWHHGPVAYWGQGTLVTVSS VL: DIQMTQSPSSLSASVGDRVTITCKASQAVSSAVAWYQQKPGKAPKLLIYWASTRHTGVPSRFSGSGSGTDFTLTISSLQPEDFATYYCQQHYSTPFTFGQGTKLEIK",binds
17,"AB257 (antibody, V domains shown, also called hMAK195VH.2a / hMAK195VL.1a) VH: EVQLVESGGGLVQPGGSLRLSCAVSGFTLSDYGVNWVRQAPGKGLEWLGMIWGDGSTDYDSTLKSRLTISKDNSKSTIYLQMNSLRAEDTAVYYCAREWHHGPVAYWGQGTLVTVSS VL: DIQMTQSPSSLSASVGDRVTITCKASQAVSSAVAWYQQKPGKSPKLLIYWASTRHTGVPSRFSGSGSGTDFTLTISSLQPEDFATYYCQQHYSTPFTFGQGTKLEIK",binds
18,"AB261 (antibody, V domains shown, also called hMAK195VH.2b / hMAK195VL.1a) VH: EVQLVESGGGLVQPGGSLRLSCAASGFTLSDYGVNWVRQAPGKGLEWVSMIWGDGSTDYDSTLKSRFTISKDNSKNTLYLQMNSLRAEDTAVYYCAREWHHGPVAYWGQGTLVTVSS VL: DIQMTQSPSSLSASVGDRVTITCKASQAVSSAVAWYQQKPGKSPKLLIYWASTRHTGVPSRFSGSGSGTDFTLTISSLQPEDFATYYCQQHYSTPFTFGQGTKLEIK",binds
19,"AB262 (antibody, V domains shown, also called hMAK195VH.2b / hMAK195VL.2) VH: EVQLVESGGGLVQPGGSLRLSCAASGFTLSDYGVNWVRQAPGKGLEWVSMIWGDGSTDYDSTLKSRFTISKDNSKNTLYLQMNSLRAEDTAVYYCAREWHHGPVAYWGQGTLVTVSS VL: EIVMTQSPATLSLSPGERATLSCKASQAVSSAVAWYQQKPGQAPRLLIYWASTRHTGIPARFSGSGSGTDFTLTISSLQPEDFAVYYCQQHYSTPFTFGQGTKLEIK",binds
20,"AB254 (antibody, V domains shown, also called hMAK195VH.2 / hMAK195VL.2) VH: EVQLVESGGGLVQPGGSLRLSCAASGFTFSDYGVNWVRQAPGKGLEWVSMIWGDGSTDYDSTLKSRFTISRDNSKNTLYLQMNSLRAEDTAVYYCAREWHHGPVAYWGQGTLVTVSS VL: EIVMTQSPATLSLSPGERATLSCKASQAVSSAVAWYQQKPGQAPRLLIYWASTRHTGIPARFSGSGSGTDFTLTISSLQPEDFAVYYCQQHYSTPFTFGQGTKLEIK",binds
21,"AB255 (antibody, V domains shown, also called hMAK195VH.2 / hMAK195VL.2a) VH: EVQLVESGGGLVQPGGSLRLSCAASGFTFSDYGVNWVRQAPGKGLEWVSMIWGDGSTDYDSTLKSRFTISRDNSKNTLYLQMNSLRAEDTAVYYCAREWHHGPVAYWGQGTLVTVSS VL: EIVMTQSPATLSLSPGERATLSCKASQAVSSAVAWYQQKPGQSPRLLIYWASTRHTGVPARFSGSGSGTDFTLTISSLQPEDFAVYYCQQHYSTPFTFGQGTKLEIK",binds
22,"AB258 (antibody, V domains shown, also called hMAK195VH.2a / hMAK195VL.2) VH: EVQLVESGGGLVQPGGSLRLSCAVSGFTLSDYGVNWVRQAPGKGLEWLGMIWGDGSTDYDSTLKSRLTISKDNSKSTIYLQMNSLRAEDTAVYYCAREWHHGPVAYWGQGTLVTVSS VL: EIVMTQSPATLSLSPGERATLSCKASQAVSSAVAWYQQKPGQAPRLLIYWASTRHTGIPARFSGSGSGTDFTLTISSLQPEDFAVYYCQQHYSTPFTFGQGTKLEIK",binds

# Reference: patent US20110250130A1 (AbbVie / Abbott, published 2011)
